Assay results taken from publication PMC4144766.
No constants are given. Whether binding was seen depends on the method and setting. Binding can be weak; no strength is given.

Molecular target: TaNPSN11 fragment without the trans-membrane region (yeast two-hybrid bait) (Triticum aestivum (common wheat)) (UniProt J7JVJ9)
Assay: two-hybrid; Matchmaker yeast two-hybrid system, yeast strain AH109; baits in pGBK7, preys in pGADT7, co-transformed in pairs; tested on SD-Trp-Leu-His and SD-Trp-Leu-His-Ade plates

binding: binds
Substance: TaSYP132 fragment without the trans-membrane region (yeast two-hybrid prey) (from UniProt A0ACM8QMH2) (domain or fragment)
